The other results are listed elsewhere or left out. Shown are side measurements of this screen, not its main read-out; they come without a call. Most of these compounds were active or inconclusive in the main read-out, so they are no random draw.

By UniProt entry, the sequences of proteins in these tests, tags left out.
UniProt P21453, whole entry, looked up: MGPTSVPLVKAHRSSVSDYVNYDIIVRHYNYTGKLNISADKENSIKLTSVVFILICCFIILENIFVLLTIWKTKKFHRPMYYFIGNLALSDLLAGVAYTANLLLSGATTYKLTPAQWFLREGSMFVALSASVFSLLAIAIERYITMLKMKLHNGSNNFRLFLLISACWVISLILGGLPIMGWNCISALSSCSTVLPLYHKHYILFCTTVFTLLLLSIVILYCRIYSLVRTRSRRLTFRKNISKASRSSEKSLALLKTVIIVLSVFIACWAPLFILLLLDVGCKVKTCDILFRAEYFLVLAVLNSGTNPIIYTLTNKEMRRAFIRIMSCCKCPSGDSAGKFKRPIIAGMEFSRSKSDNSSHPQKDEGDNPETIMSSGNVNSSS

The values below come from PubChem BioAssay AID449 (The Scripps Research Institute Molecular Screening Center, 2006).

This assay addresses Sphingosine 1-phosphate receptor 1 (Homo sapiens) (UniProt P21453). Description: activation or potentiation of human S1P1 signaling – cell-based, primary and confirmation screens, CRE-bla reporter, primary screen (AID 449).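 Note: forskolin at 4 µM as EC80 and the EC20 agonist is SEW2871; 100% = SEW2871 at its EC100 plus forskolin at EC80.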 Particulars: S1P1 CRE-bla cells, forskolin, beta-lactamase FRET, potentiator mode; measured here: confirmation screen, triplicate average; at 9.5 µM; stronger effect = higher value.
For the compound `Cn1ncnc2c(=O)n(C)c(=O)nc1-2`, the activation was determined as 105%.

Turning to `CCC(=NCCOc1ccc(Cl)cc1)c1c(O)n(C)c(=O)n(C)c1=O`, the activation is 87%.

As for `CCn1nc(-c2ccccc2)nc2c(=O)n(C)c(=O)nc1-2`, the activation was determined as 106%.

As for `CCn1nc(-c2cccs2)nc2c(=O)n(C)c(=O)nc1-2`, the activation amounted to 86.5%.

Turning to `Oc1ccc(C2NCc3ccccc3-n3cccc32)cc1Cl` (stereo not given), the activation stood at 93.7%.
